Assay results reported in paper PMC11603163.
These are yes or no findings as the source states them, for the method shown. In cells and extracts the contact can be indirect. Here binding means that the protein was enriched with, or labelled near, the bait; the list need not be complete. For part of these data: No binding means not detected with the bait. For part of these data: Tags and fused reporters may be left off the sequences shown.

Sequences of proteins named here, by UniProt entry; tags and fusion partners are left off.
UniProt Q9LQ02: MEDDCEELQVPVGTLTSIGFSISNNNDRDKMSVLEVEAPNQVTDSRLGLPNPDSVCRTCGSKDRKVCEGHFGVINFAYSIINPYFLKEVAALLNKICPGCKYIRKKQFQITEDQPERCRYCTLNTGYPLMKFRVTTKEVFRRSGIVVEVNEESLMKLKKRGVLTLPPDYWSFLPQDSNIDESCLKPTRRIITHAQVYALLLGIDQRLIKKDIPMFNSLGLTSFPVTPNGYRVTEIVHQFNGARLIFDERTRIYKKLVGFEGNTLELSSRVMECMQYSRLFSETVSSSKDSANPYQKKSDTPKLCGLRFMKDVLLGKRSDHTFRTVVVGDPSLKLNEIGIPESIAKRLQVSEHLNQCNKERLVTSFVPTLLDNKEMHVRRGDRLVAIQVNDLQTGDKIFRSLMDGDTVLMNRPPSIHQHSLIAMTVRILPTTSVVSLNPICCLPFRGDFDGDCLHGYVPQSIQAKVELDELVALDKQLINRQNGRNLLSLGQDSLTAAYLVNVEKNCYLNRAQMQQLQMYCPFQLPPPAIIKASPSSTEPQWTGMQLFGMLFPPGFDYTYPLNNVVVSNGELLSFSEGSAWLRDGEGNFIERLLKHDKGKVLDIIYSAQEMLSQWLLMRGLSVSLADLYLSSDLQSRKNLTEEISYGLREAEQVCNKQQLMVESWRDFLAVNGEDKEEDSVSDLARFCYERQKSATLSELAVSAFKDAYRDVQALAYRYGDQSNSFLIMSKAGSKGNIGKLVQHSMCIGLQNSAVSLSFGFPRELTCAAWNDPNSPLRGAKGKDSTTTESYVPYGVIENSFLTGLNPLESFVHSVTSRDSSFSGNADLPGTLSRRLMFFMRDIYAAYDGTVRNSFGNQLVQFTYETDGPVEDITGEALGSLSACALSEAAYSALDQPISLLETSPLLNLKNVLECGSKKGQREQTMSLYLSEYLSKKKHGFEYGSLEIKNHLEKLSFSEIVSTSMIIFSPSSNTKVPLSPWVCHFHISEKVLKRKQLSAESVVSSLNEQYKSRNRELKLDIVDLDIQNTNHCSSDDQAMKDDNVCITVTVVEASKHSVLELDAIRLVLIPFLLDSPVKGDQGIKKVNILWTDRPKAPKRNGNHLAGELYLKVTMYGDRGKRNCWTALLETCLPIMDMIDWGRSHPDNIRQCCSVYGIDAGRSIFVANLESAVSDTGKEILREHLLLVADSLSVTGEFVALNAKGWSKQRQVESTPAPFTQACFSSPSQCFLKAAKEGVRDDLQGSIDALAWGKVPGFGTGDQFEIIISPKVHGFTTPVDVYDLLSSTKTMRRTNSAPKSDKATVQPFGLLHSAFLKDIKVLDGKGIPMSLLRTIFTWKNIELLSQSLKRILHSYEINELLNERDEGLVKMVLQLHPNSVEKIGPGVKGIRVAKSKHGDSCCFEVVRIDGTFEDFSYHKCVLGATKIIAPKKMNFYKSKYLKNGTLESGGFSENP

What was measured:
[1] = molecular target: T1, 3xF-tagged CLSY4 (Arabidopsis) (UniProt Q9LK10); assay: affinity purification with mass spectrometry; anti-Flag M2 magnetic beads on 10 g flowers of 3xF-tagged CLSY lines in their clsy mutant backgrounds; elution with 3x-FLAG peptide; compared to non-transgenic wild-type controls
T1 sequence: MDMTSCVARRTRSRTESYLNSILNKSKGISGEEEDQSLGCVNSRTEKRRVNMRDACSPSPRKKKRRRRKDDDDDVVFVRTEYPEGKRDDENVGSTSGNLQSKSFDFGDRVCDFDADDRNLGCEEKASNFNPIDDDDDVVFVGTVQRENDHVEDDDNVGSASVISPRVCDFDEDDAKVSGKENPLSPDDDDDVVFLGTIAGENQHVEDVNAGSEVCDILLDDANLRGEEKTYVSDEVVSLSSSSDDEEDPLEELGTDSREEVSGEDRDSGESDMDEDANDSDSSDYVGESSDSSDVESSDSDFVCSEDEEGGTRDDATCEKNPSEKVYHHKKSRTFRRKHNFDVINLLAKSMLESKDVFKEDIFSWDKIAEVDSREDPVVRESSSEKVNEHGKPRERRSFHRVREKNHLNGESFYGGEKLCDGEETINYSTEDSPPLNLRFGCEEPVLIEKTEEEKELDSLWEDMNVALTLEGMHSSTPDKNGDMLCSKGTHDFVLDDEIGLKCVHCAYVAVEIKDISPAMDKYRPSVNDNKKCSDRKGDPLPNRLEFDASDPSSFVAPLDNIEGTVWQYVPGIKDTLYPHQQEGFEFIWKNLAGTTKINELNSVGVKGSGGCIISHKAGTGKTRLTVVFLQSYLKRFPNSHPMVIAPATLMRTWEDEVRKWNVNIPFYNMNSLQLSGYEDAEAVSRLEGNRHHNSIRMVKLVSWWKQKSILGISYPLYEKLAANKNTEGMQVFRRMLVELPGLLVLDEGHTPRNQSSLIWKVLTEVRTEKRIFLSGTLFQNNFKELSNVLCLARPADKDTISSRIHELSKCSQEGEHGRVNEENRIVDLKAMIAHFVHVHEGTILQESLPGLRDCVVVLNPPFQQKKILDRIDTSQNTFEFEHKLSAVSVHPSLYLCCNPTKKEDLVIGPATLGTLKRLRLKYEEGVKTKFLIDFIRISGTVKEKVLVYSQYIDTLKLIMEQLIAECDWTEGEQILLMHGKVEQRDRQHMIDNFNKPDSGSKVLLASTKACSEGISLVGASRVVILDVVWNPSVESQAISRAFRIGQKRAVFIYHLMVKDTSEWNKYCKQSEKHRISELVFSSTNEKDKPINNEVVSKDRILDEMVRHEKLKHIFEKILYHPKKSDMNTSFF

[2] = molecular target: T2, 3xF-tagged CLSY3 (Arabidopsis) (UniProt F4I8S3); assay: as above
T2 sequence: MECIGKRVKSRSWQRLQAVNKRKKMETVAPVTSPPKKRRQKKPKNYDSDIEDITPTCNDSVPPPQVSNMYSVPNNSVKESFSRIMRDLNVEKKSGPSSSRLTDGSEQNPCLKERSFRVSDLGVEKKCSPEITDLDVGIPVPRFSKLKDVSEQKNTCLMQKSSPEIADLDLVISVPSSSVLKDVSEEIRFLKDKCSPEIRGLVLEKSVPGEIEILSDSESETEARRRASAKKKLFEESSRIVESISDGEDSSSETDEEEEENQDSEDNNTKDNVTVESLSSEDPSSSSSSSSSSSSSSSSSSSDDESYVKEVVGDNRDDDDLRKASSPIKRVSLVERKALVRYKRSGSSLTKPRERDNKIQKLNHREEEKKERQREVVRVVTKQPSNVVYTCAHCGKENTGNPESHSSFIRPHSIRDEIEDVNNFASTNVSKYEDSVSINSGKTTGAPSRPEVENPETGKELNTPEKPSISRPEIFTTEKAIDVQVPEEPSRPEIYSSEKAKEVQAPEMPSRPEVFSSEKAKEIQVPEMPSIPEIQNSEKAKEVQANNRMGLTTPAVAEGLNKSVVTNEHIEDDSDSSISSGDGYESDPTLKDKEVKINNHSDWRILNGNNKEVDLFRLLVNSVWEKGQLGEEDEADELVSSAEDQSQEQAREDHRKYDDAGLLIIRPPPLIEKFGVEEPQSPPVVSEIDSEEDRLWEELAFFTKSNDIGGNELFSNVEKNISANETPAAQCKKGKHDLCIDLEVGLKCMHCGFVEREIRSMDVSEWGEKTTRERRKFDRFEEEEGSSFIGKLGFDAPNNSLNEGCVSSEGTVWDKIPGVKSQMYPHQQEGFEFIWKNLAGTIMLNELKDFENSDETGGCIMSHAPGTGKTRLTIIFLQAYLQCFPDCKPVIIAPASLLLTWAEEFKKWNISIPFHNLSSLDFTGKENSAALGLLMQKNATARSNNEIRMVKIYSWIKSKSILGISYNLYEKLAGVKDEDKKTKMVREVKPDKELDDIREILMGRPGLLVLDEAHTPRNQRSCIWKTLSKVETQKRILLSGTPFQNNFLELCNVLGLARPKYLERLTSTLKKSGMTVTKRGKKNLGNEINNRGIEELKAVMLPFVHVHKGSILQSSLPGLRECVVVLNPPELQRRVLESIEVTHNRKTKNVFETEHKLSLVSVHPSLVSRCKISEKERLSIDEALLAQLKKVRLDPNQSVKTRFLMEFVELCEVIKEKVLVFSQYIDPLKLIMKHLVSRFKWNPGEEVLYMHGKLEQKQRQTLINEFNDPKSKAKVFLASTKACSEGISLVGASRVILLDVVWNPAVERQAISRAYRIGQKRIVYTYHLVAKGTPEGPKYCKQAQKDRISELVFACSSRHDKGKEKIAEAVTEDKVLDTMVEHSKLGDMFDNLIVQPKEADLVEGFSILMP

[3] = molecular target: NRPD1-3xFWT (Arabidopsis) (UniProt Q9LQ02); assay: affinity purification with mass spectrometry; anti-FLAG magnetic beads (uMACS DYKDDDK kit) on flower extracts of nrpd1-3 T2 lines with NRPD1-3xF WT, AAA-YPMF or CYC-AAAA; three lines, two replicates each; LC-MS/MS spectral counts

B1: CLASSY 1 (CLSY1) (protein, UniProt Q9M297 1-1256)
chain: MKRKHYFEFNHPFNPCPFEVFCWGTWKAVEYLRIENGTMTMRLLENGQVLDDIKPFQRLRIRSRKATLIDCTSFLRPGIDVCVLYQRDEETPEPVWVDARVLSIERKPHESECLCTFHVSVYIDQGCIGLEKHRMNKVPVLVGLNEIAILQKFCKEQSLDRYYRWRYSEDCSSLVKTRLNLGKFLPDLTWLLVTSVLKNIVFQIRTVHEKMVYQIVTDEDCEGSSSSLSAMNITVEDGVVMSKVVLFNPAEDTCQDSDVKEEIEEEVMELRRSKRRSGRPERYGDSEIQPDSKDGWVRMMPYRYNIWNVSSDDDDEEEDCEDDKDTDDDLYLPLSHLLRKKGSKKGFSKDKQREIVLVDKTERKKRKKTEGFSRSCELSVIPFTPVFEPIPLEQFGLNANSLCGGVSGNLMDEIDKYRSKAAKYGKKKKKKIEMEEMESDLGWNGPIGNVVHKRNGPHSRIRSVSRETGVSEEPQIYKKRTLSAGAYNKLIDSYMSRIDSTIAAKDKATNVVEQWQGLKNPASFSIEAEERLSEEEEDDGETSENEILWREMELCLASSYILDDHEVRVDNEAFHKATCDCEHDYELNEEIGMCCRLCGHVGTEIKHVSAPFARHKKWTTETKQINEDDINTTIVNQDGVESHTFTIPVASSDMPSAEESDNVWSLIPQLKRKLHLHQKKAFEFLWKNLAGSVVPAMMDPSSDKIGGCVVSHTPGAGKTFLIIAFLASYLKIFPGKRPLVLAPKTTLYTWYKEFIKWEIPVPVHLLHGRRTYCMSKEKTIQFEGIPKPSQDVMHVLDCLDKIQKWHAQPSVLVMGYTSFLTLMREDSKFAHRKYMAKVLRESPGLLVLDEGHNPRSTKSRLRKALMKVDTDLRILLSGTLFQNNFCEYFNTLCLARPKFVHEVLVELDKKFQTNQAEQKAPHLLENRARKFFLDIIAKKIDTKVGDERLQGLNMLRNMTSGFIDNYEGSGSGSGDVLPGLQIYTLLMNSTDVQHKSLTKLQNIMSTYHGYPLELELLITLAAIHPWLVKTTTCCAKFFNPQELLEIEKLKHDAKKGSKVMFVLNLVFRVVKREKILIFCHNIAPIRLFLELFENVFRWKRGRELLTLTGDLELFERGRVIDKFEEPGGQSRVLLASITACAEGISLTAASRVIMLDSEWNPSKTKQAIARAFRPGQQKVVYVYQLLSRGTLEEDKYRRTTWKEWVSSMIFSEEFVEDPSQWQAEKIEDDVLREIVEEDKVKSFHMIMKNEKASTGG
- binding [1]: no binding
- binding [2]: no binding
- binding [3]: binds
